Data taken from the supplement of paper PMC8728848.
This is one part of the list.

What was measured:
Assay in all cases: glycan array binding signal (z-score within array); higher = stronger binding
Settings in all cases: glycan notation: IUPAC condensed, linker removed
[1] = biological target: Gal(b1-4)GlcNAc(b1-6)Gal(b1-4)GlcNAc
How it was run: (§1)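 From the Consortium for Functional Glycomics database, 3228 arrays were curated, keeping only those whose protein sequence was available. Binding is given as a within-array Z-score averaged across arrays sharing a protein sequence and across linkers. Negative Z-scores can be read as non-binding.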

[2] = biological target: Gal(b1-4)GlcNAc(b1-6)GalNAc
How it was run: as §1

[3] = biological target: Gal(b1-4)GlcNAc(b1-6)[Gal(b1-3)]GalNAc
How it was run: as §1

[4] = biological target: Gal(b1-4)GlcNAc(b1-6)[Gal(b1-4)GlcNAc(b1-3)]GalNAc
How it was run: as §1

Gal(b1-4)GlcNAc6P = biological target: Gal(b1-4)GlcNAc6P
How it was run: as §1

Gal(b1-6)Gal = biological target: Gal(b1-6)Gal
How it was run: as §1

Gal3S(b1-3)GalNAc = biological target: Gal3S(b1-3)GalNAc
How it was run: as §1

Gal3S(b1-3)GlcNAc = biological target: Gal3S(b1-3)GlcNAc
How it was run: as §1

[5] = biological target: Gal3S(b1-3)[Fuc(a1-4)]GlcNAc
How it was run: as §1

Gal3S(b1-4)Glc = biological target: Gal3S(b1-4)Glc
How it was run: as §1

Gal3S(b1-4)Glc6S = biological target: Gal3S(b1-4)Glc6S
How it was run: as §1

Gal3S(b1-4)GlcNAc = biological target: Gal3S(b1-4)GlcNAc
How it was run: as §1

[6] = biological target: Gal3S(b1-4)[Fuc(a1-3)]Glc6S
How it was run: as §1

[7] = biological target: Gal3S(b1-4)[Fuc(a1-3)]GlcNAc
How it was run: as §1

[8] = biological target: Gal3S(b1-4)[Fuc(a1-3)]GlcNAc6S
How it was run: as §1

Gal3S4S(b1-4)GlcNAc = biological target: Gal3S4S(b1-4)GlcNAc
How it was run: as §1

Gal3S6S(b1-4)GlcNAc = biological target: Gal3S6S(b1-4)GlcNAc
How it was run: as §1

Gal3S6S(b1-4)GlcNAc6S = biological target: Gal3S6S(b1-4)GlcNAc6S
How it was run: as §1

Gal4S(b1-4)GlcNAc = biological target: Gal4S(b1-4)GlcNAc
How it was run: as §1

Gal4S6S(b1-4)GlcNAc = biological target: Gal4S6S(b1-4)GlcNAc
How it was run: as §1

Gal6P(b1-4)GlcNAc = biological target: Gal6P(b1-4)GlcNAc
How it was run: as §1

Gal6S(b1-3)GlcNAc = biological target: Gal6S(b1-3)GlcNAc
How it was run: as §1

Gal6S(b1-3)GlcNAc6S = biological target: Gal6S(b1-3)GlcNAc6S
How it was run: as §1

Gal6S(b1-4)Glc = biological target: Gal6S(b1-4)Glc
How it was run: as §1

Gal6S(b1-4)Glc6S = biological target: Gal6S(b1-4)Glc6S
How it was run: as §1

Gal6S(b1-4)GlcNAc = biological target: Gal6S(b1-4)GlcNAc
How it was run: as §1

Gal6S(b1-4)GlcNAc6S = biological target: Gal6S(b1-4)GlcNAc6S
How it was run: as §1

GalNAc(a1-3)Gal = biological target: GalNAc(a1-3)Gal
How it was run: as §1

GalNAc(a1-3)GalNAc = biological target: GalNAc(a1-3)GalNAc
How it was run: as §1

[9] = biological target: GalNAc(a1-3)GalNAc(b1-3)Gal(a1-4)Gal(b1-4)Glc
How it was run: as §1

[10] = biological target: GalNAc(a1-3)GalNAc(b1-3)Gal(a1-4)Gal(b1-4)GlcNAc
How it was run: as §1

GalNAc(b1-3)Gal = biological target: GalNAc(b1-3)Gal
How it was run: as §1

[11] = biological target: GalNAc(b1-3)Gal(a1-4)Gal(b1-4)GlcNAc
How it was run: as §1

[12] = biological target: GalNAc(b1-3)Gal(a1-4)Gal(b1-4)GlcNAc(b1-3)Gal(b1-4)Glc
How it was run: as §1

[13] = biological target: GalNAc(b1-3)Gal(a1-6)Gal(b1-4)Glc
How it was run: as §1

GalNAc(b1-3)GalNAc = biological target: GalNAc(b1-3)GalNAc
How it was run: as §1

GalNAc(b1-3)GlcNAc = biological target: GalNAc(b1-3)GlcNAc
How it was run: as §1

GalNAc(b1-4)Gal(b1-4)Glc = biological target: GalNAc(b1-4)Gal(b1-4)Glc
How it was run: as §1

B1: Epa2 (Candida glabrata) (protein)
chain: MGSSHHHHHHSSGLVPRGSHMASSKDPTSFPMGCSPQVLKTQPGLAVKLYSYGHPVPGCAYNTYQYPDFPRSGYKKERKLADITGVNGRIDIDLKPNDPCRVLSGNLPSNYNYQNTLTYTNFTMILYGYFQPKVTGYHTFNLEADDLLFMNLGAGNAFDCCRAESTLDNFGNYQSYSIWGTDKATADLTVFLVSGIYYPIRLFYVNRDNNAVLDFSFSTEFNKEIIHDFTSYFFSASDEEQCPGNI
[1]
  glycan array binding signal (z-score): 0.05
[2]
  glycan array binding signal (z-score): 0.29
[3]
  glycan array binding signal (z-score): 0.842
[4]
  glycan array binding signal (z-score): -0.015
Gal(b1-4)GlcNAc6P
  glycan array binding signal (z-score): 1.42
Gal(b1-6)Gal
  glycan array binding signal (z-score): -0.157
Gal3S(b1-3)GalNAc
  glycan array binding signal (z-score): -0.202
Gal3S(b1-3)GlcNAc
  glycan array binding signal (z-score): -0.16
[5]
  glycan array binding signal (z-score): 0.641
Gal3S(b1-4)Glc
  glycan array binding signal (z-score): -0.697
Gal3S(b1-4)Glc6S
  glycan array binding signal (z-score): -0.006
Gal3S(b1-4)GlcNAc
  glycan array binding signal (z-score): 0.419
[6]
  glycan array binding signal (z-score): 0.295
[7]
  glycan array binding signal (z-score): -0.151
[8]
  glycan array binding signal (z-score): 1.59
Gal3S4S(b1-4)GlcNAc
  glycan array binding signal (z-score): -0.29
Gal3S6S(b1-4)GlcNAc
  glycan array binding signal (z-score): 0.268
Gal3S6S(b1-4)GlcNAc6S
  glycan array binding signal (z-score): 2.14
Gal4S(b1-4)GlcNAc
  glycan array binding signal (z-score): -0.316
Gal4S6S(b1-4)GlcNAc
  glycan array binding signal (z-score): 0.784
Gal6P(b1-4)GlcNAc
  glycan array binding signal (z-score): -0.469
Gal6S(b1-3)GlcNAc
  glycan array binding signal (z-score): -0.535
Gal6S(b1-3)GlcNAc6S
  glycan array binding signal (z-score): 0.048
Gal6S(b1-4)Glc
  glycan array binding signal (z-score): -0.278
Gal6S(b1-4)Glc6S
  glycan array binding signal (z-score): 1.75
Gal6S(b1-4)GlcNAc
  glycan array binding signal (z-score): -0.59
Gal6S(b1-4)GlcNAc6S
  glycan array binding signal (z-score): 2.81
GalNAc(a1-3)Gal
  glycan array binding signal (z-score): -0.314
GalNAc(a1-3)GalNAc
  glycan array binding signal (z-score): -0.524
[9]
  glycan array binding signal (z-score): -0.947
[10]
  glycan array binding signal (z-score): 0.18
GalNAc(b1-3)Gal
  glycan array binding signal (z-score): -0.1
[11]
  glycan array binding signal (z-score): 0.236
[12]
  glycan array binding signal (z-score): 1.03
[13]
  glycan array binding signal (z-score): 0.4
GalNAc(b1-3)GalNAc
  glycan array binding signal (z-score): -0.673
GalNAc(b1-3)GlcNAc
  glycan array binding signal (z-score): -0.359
GalNAc(b1-4)Gal(b1-4)Glc
  glycan array binding signal (z-score): 0.342
